Laboratory results from article PMC12040169 (PLOS Biology, 2025).
This is one part of the list.

system: T1, CTL2-GFP (C. trachomatis L2/434/Bu, GFP-expressing); parameters: species or system HeLa; Intracellular C. trachomatis growth in HeLa cells, bulk GFP fluorescence relative to DMSO; settings: bulk GFP, single well; 28.5 h, 10 µM; inhibitor
T1 construct: L2/434/Bu, GFP-expressing

| Structure (SMILES) | % of control remaining [%] |
| --- | --- |
| CC(C)n1c(=O)[nH]c2ccncc2c1=O [CBK015763] | 129.679 |
| CC(C)CCC(C)NC(=O)c1ccc(Oc2ccc(F)cc2)cc1 (stereo not drawn) [CBK295650] | 128.034 |
| Nc1nonc1C(=O)NCCNCc1ccc(Cl)cc1 [CBK267194] | 142.284 |
| Nc1cc(O)nc(SCC(=O)N2CCN(c3ccccc3)CC2)n1 [CBK267925] | 117.976 |
| Cc1nn(-c2ccccc2)c2[nH]c(=O)c(CNC(C)C)cc12 [CBK282899] | 99.7296 |
| COc1ccc(C(=O)Nc2ccccc2N2CCN(C)CC2)cc1Cl [CBK268001] | 122.631 |
| Nc1c(-c2cc(F)cc(F)c2)cnc2ncccc12 [CBK083677] | 84.2517 |
| N#C/C(=N/Nc1ccc(Br)cc1)C1=NC(=O)CS1 [CBK018747] | 120.652 |
| O=C(COC(=O)c1ccncc1)c1ccc(OC(=O)c2ccccc2)cc1 [CBK265169] | 117.061 |
| COC(=O)Nc1ccccc1N1CCN(CCCCN2CCN(c3ccccc3)C2=O)CC1 [CBK024372C] | 100.793 |
| O=C(C1CCC1)N1CCC(n2c(=O)[nH]c3ccccc32)CC1 [CBK149709] | 113.037 |
| Clc1ccc(-c2cn(-c3cnc4ccccc4c3)nn2)cc1 [CBK113044] | 103.825 |
| COc1ncccc1C(=O)N1CCN(CCc2ccccc2)CC1 [CBK200226] | 64.4258 |
| CCc1ccccc1NC(=O)Cc1ccc(OC)cc1 [CBK087898] | 103.756 |
| Cc1ccccc1NC(=O)NCc1ccccc1F [CBK105832] | 105.319 |
| CN1CCN(C(=O)c2[nH]c3ccccc3c2NS(=O)(=O)c2cccc3cccnc23)CC1 [CBK050041] | 120.03 |
| CCC(CC)CNc1ncnc2ccc(S(C)(=O)=O)cc12 [CBK306495] | 91.9429 |
| COc1cccc([C@H]2CN(C(=O)c3ccccc3)[C@@H]3CCN(Cc4cccc(F)c4)C[C@H]23)c1 [CBK285626] | 89.9046 |
| CCOC(=O)c1cc2c(CNc3ccc(OC)nc3)cccc2o1 [CBK006086] | 100 |
| CC(C)(C)OC(=O)NCCc1ccc(Nc2cc(-c3cc4ccccc4s3)ncn2)cc1 [CBK090959] | 110.098 |
| CN1CCCN(c2nc(-c3cccc(C(F)(F)F)c3)cn3ccnc23)CC1 [CBK066519] | 150.809 |

| Structure (SMILES) | % of control remaining [%] |
| --- | --- |
| Nc1nc(COn2c(-c3ccccc3)nc3ccccc3c2=O)nc(-c2ccccc2O)n1 [CBK266689] | 129.127 |
| COc1ccc(C(NC(=O)C2CCCN(C(=O)NC(=O)c3ccccc3)C2)c2ccccc2C)cn1 (stereo not drawn) [CBK075023] | 100 |
| C=C1C2(C(=O)N3CCC(Oc4cccnc4)CC3)CCC(C2)C1(C)C (stereo not drawn) [CBK282082] | 84.2559 |
| O=C(Nc1nnc(Cc2cccs2)o1)c1ccccc1 [CBK287831] | 107.066 |
| Cc1ncc([N+](=O)[O-])n1Cc1nnc(S)n1C [CBK267873] | 117.523 |
| Cc1cccc(-c2ncc(NC(=O)COc3ccc4ccccc4c3)nc2-c2ccc(N(C)C)cc2)c1 [CBK037575] | 76.1977 |
| Cc1nc(SCC(=O)O)nc(O)c1CCC(C)C [CBK269920] | 79.7596 |
| Cc1cc(Cl)c(S(=O)(=O)Nc2ccc(I)cc2)cc1OCC(N)=O [CBK266418] | 176.626 |
| CS(=O)(=O)Nc1ncc(Br)cc1C(=O)NCc1ccc(F)cc1 [CBK076538] | 127.585 |
| CCOc1ccc(S(=O)(=O)N(C)CC(=O)O)cc1 [CBK270032] | 144.932 |
| O=c1c2c(n3c(S)nnc3n1Cc1ccco1)-c1ccccc1CC21CCCCC1 [CBK265271] | 135.754 |
| CCCCN(CC)S(=O)(=O)c1ccc(-n2ncc(Cl)c(Cl)c2=O)cc1 [CBK305036] | 47.8531 |
| CC(C)N(C(=O)Cn1cccc2cc(C(F)F)nc1-2)C(C)C [CBK285012] | 114.003 |
| CN1CCN(CCC(=O)Nc2ccc3c(c2)CCC3)CC1 [CBK264197] | 120.642 |
| COc1ccc(CN(Cc2ccccc2OC)[C@@H]2COC[C@H]2c2ccc(F)cc2)cc1 [CBK286484] | 79.1014 |
| CCN(CC)c1ccc(C(=O)CN2CCC(Oc3nccnc3OCc3cccnc3)CC2)cc1 [CBK083167T] | 112.738 |
| O=C(NCC1CCCO1)C(=O)Nc1ccccc1F (stereo not drawn) [CBK263557] | 135.893 |
| Cc1ccc(COc2cc(C(=O)NCc3ccccn3)c3ccccc3n2)cc1 [CBK294403] | 105.426 |
| Cc1cc(NC(=O)c2ccccc2)n(-c2nc(C)c(C)c(=O)[nH]2)n1 [CBK287655] | 105.963 |
| CC/C(=C/c1sc2ccc3ccccc3c2[n+]1CCCS(=O)(=O)[O-])SC [CBK260901] | 98.1494 |
| COc1ccccc1N1CCN(C(=O)CCCC(=O)O)CC1 [CBK286904] | 134.812 |

For reference, part of the list above:

| Structure (SMILES) | % of control remaining [%] |
| --- | --- |
| CCOc1ccc(S(=O)(=O)N(C)CC(=O)O)cc1 [CBK270032] | 144.932 |
| O=c1c2c(n3c(S)nnc3n1Cc1ccco1)-c1ccccc1CC21CCCCC1 [CBK265271] | 135.754 |
| CCCCN(CC)S(=O)(=O)c1ccc(-n2ncc(Cl)c(Cl)c2=O)cc1 [CBK305036] | 47.8531 |
| CC(C)N(C(=O)Cn1cccc2cc(C(F)F)nc1-2)C(C)C [CBK285012] | 114.003 |
| CN1CCN(CCC(=O)Nc2ccc3c(c2)CCC3)CC1 [CBK264197] | 120.642 |

Following part:

| Structure (SMILES) | % of control remaining [%] |
| --- | --- |
| O=C(NCc1ccccn1)C(=O)N/N=C/c1ccccc1O [CBK262157] | 109.501 |
| O=C(OCc1cc2ccccc2cn1)N1CCOCC1 [CBK200121] | 109.263 |
| O=C(NCCN1CCN(Cc2ccccc2Cl)CC1)Nc1ccccc1 [CBK268039] | 96.9929 |
| Cc1ccc(C(=O)N2C3CCC2CC(O)(c2cccnc2F)C3)o1 (stereo not drawn) [CBK284423] | 116.676 |
| O=C(O)COc1ccc(NC(=O)C(c2ccccc2)c2ccccc2)cc1 [CBK264250] | 136.873 |
| Cc1ccccc1COc1cccc2c1CCCC2 [CBK002562] | 100.821 |
| CS(=O)(=O)N1CC=CC1C(=O)NCCCc1ccc(F)cc1 (stereo not drawn) [CBK282631] | 106.234 |
| O=C(NC(Cc1ccsc1)c1nccs1)C1CCOCC1 (stereo not drawn) [CBK282824] | 142.047 |
| COc1ccc(/C=N/Nc2ccc([N+](=O)[O-])cc2)c(C(=O)O)c1OC [CBK261984] | 118.102 |
| c1ccc(N2CCN(c3cccc(-c4ccco4)n3)CC2)nc1 [CBK037662] | 92.4568 |
| CCNc1cc(-c2cccc(N(C)C)c2)ncn1 [CBK090878] | 96.447 |
| CC(C)(C)C1CCc2c(sc(NC(=O)CCC(=O)O)c2C(=O)Nc2ccccc2Cl)C1 (stereo not drawn) [CBK264146] | 100 |
| O=[N+]([O-])c1ccccc1CN1CCN(C/C=C/c2ccccc2)CC1 [CBK261518] | 112.036 |
| Cc1cn(S(=O)(=O)c2ccc(Cl)cc2)cn1 [CBK026492] | 110.398 |
| O=C(NCc1ccc(F)cc1)c1ncoc1-c1cccs1 [CBK283976] | 94.8885 |
| O=C(CN1CCSCC1)NNC(=S)Nc1ccccc1 [CBK262445] | 100 |
| O=C(c1ccccc1)c1cc(Cl)ccc1-n1ccnc1 [CBK012383] | 111.467 |
| Cc1cc(NC(=O)C(C)Oc2ccccc2)nc2c1c(=O)oc1ccccc12 (stereo not drawn) [CBK291153] | 128.947 |
| O=C(CSCc1ccc(Br)cc1)N1CCN(Cc2ccc3c(c2)OCO3)CC1 [CBK268059] | 122.654 |
| CC1CCc2c(sc3ncnc(OCC(=O)NC4CCCC4)c23)C1 (stereo not drawn) [CBK305893] | 114.796 |
| Cc1nn(C)cc1-c1cncn1CC(C)Oc1ccccc1Cl (stereo not drawn) [CBK281739] | 133.613 |

| Structure (SMILES) | % of control remaining [%] |
| --- | --- |
| O=C(O)COCC(=O)N1CCCC(c2nc(-c3ccccc3)c3ccccn23)C1 (stereo not drawn) [CBK046806] | 210.855 |
| Cc1cc(C)nc(NC(=O)COc2ccc([N+](=O)[O-])cc2)n1 [CBK265004] | 97.2865 |
| Brc1ccc(OCc2ccccc2)c(CNCc2ccccn2)c1 [CBK268340C] | 61.7155 |
| Cc1nccn1CCC1CCN(C(=O)c2cn3ccccc3n2)CC1 [CBK281868] | 133.108 |
| CCc1cccc(NC(=O)c2cnc(-c3ccc(Cl)cc3)c(-c3ccc(OC)nc3)c2)n1 [CBK036671] | 138.57 |
| CCC1C(c2ccc(C)cc2)=CCC(C(=O)NCCCN(C)C)C1C (stereo not drawn) [CBK016514] | 27.683 |
| O=C(CSc1ccc2nnc(-c3ccccc3)n2n1)Nc1ccccc1 [CBK287513] | 164.064 |
| O=C(O)c1cccc(NS(=O)(=O)c2c(Cl)cc(C(F)(F)F)cc2Cl)c1 [CBK155721] | 113.37 |
| CCc1nc(CCn2ccc3nc(OC)c(C#N)cc3c2=O)no1 [CBK307668] | 116.774 |
| CC(/C=C/c1ccccc1)=N\NC(=O)C(C)Oc1ccc(Br)cc1 (stereo not drawn) [CBK261212] | 100 |
| O=S(=O)(O)c1cccc2cccc(I)c12 [CBK301197N] | 172.252 |
| CN(C)CCCN1C(=O)C(O)=C(C(=O)c2ccc(F)cc2)C1c1cccnc1 (stereo not drawn) [CBK264531] | 100 |
| CCn1cncc1C(=O)N1CCCC1(C)C(=O)NC1CCCC1 (stereo not drawn) [CBK281376] | 134.352 |
| Cc1nc(-c2ccccc2)sc1C(=O)C1=C(O)C(=O)N(CCN(C)C)C1c1ccccc1 (stereo not drawn) [CBK266415] | 196.668 |
| CCN(CC)C(=O)CN(CCc1ccc(OC)c(OC)c1)C(=O)NCc1ccc(Cl)cc1 [CBK158742] | 93.4629 |
| O=C(CC1CCN(C(=O)Cc2ccccc2)CC1)NC1(c2ccccc2)CCCC1 [CBK285965] | 98.3308 |
| CCn1c(SCC(=O)N2CCCC2)nc2cc(C)[nH]c2c1=O [CBK288027] | 138.244 |
| Cc1nn(CCC(=O)NC2CCOc3ccccc32)c(C)c1Cl (stereo not drawn) [CBK281684] | 113.559 |
